# Measurements from PubChem BioAssay AID493014 (National Center for Advancing Translational Sciences (NCATS), 2011).
# The campaign covered roughly 340,000 compounds. About 170 (0.05%) were called active. The shares of active, inactive and inconclusive entries below differ from those in the screen. Calls come from the whole dose curve; as a rule, active = well fitted inhibition curve with a large enough effect in the signal ratio, with a control signal flat (not every such curve was filed as active); inconclusive = small, poorly fitted or top-dose-only effect, or effect the other way, or a change in a side signal; inactive = flat fitted curve, though single readings scatter; the % refers to the signal ratio. Potencies of inconclusive entries are doubtful fits and often do not repeat.
# Test: qHTS Assay to Find Inhibitors of Chronic Active B-Cell Receptor Signaling;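 for activity change, negative = inhibition: plate controls were basal doxycycline-induced cells for no effect and cells given 10 µM MG132 for full effect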
# Conditions: ABC-DLBCL IkBa-CBG/CBR reporter, luminescence ratio (green luciferase fused to IkBa over red control in TMD8 lymphoma cells), 4 h; activity change, negative = inhibition: at 46.1 µM (top of the series) unless noted
# Summary of the method: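 Concentration-response series (up to 46 uM) were applied to TMD8 dual-reporter cells for 4 h at 37C with doxycycline. Green/red ratio, after filter-overlap correction, defined %Activity; red signal alone was normalised to basal cells and zero luminescence.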
# Potency is the fitted concentration of half-maximal effect.
SMILES,"activity change, negative = inhibition",Potency
CN(C)CCn1c2c(c(SCC(=O)Nc3ccc(F)cc3F)nc1=O)CCC2,inactive,
CCc1ccc(NC(=O)CSc2nc3n[nH]c(C)c3c(=N)n2-c2cccc(OC)c2)cc1,inconclusive: -2.16%,
CN(Cc1ccccc1)c1ccc(C(CC(N)=O)NC(=O)c2ccccc2)cc1[N+](=O)[O-] (configuration not stated),inactive,
O=[N+]([O-])c1cc([N+](=O)[O-])c(Oc2c(F)cc(F)cc2F)cc1NN1CCCCC1,inconclusive: -17.4%,
O=C(O)C1CC(=O)N(c2ccc(Br)cc2)C1 (configuration not stated),inconclusive: -7.91%,
CCOc1ccc(NC(=O)C2CCN(c3nnnn3-c3ccccc3)CC2)cc1,inconclusive: -64.8%,
O=[N+]([O-])c1ccc(Cl)c(S(=O)(=O)/N=C(/c2ccccc2)N2CCOCC2)c1,inactive,
Cc1ccsc1/C=N/Nc1nc(Cl)c(Cl)cc1Cl,inconclusive: 15.7%,
Cc1cc(C(=O)N/N=C/c2cc(Br)ccc2OC(=O)c2ccccc2Cl)n[nH]1,inactive,
O=C(Nc1ccc(Cl)cc1F)c1cc(S(=O)(=O)NCc2ccc3c(c2)OCO3)ccc1F,inconclusive: 0.423%,
COc1ccc(C2CC(c3ccccc3F)=NN2c2ccc(S(N)(=O)=O)cc2)cc1 (configuration not stated),inconclusive: 1.1%,
CN(CC(=O)Nc1ccc(Cl)c(C(F)(F)F)c1)C(=O)CCCNC(=O)c1ccc(Cl)cc1,inconclusive: -12.4%,
CCOc1cc(/C=N/N=C(\N)c2nonc2N)cc(Br)c1OCc1cccc2ccccc12,,"inconclusive: 2.31 µM [rising, full curve]"
COc1ccc(CNC(=S)Nc2cccc(OC)c2)cc1,inactive,
CCCN(c1ccc(OCC)cc1)S(=O)(=O)c1ccc2c(c1)NC(=O)CO2,inconclusive: 3.51%,
Cc1cccc(NC(=O)c2nc[nH]c2C(=O)N[C@@H](Cc2ccccc2)C(=O)OC(C)(C)C)c1,inconclusive: 5.54%,
C[C@H](NC(=O)c1nc[nH]c1C(=O)NCc1ccccc1)c1ccccc1,inconclusive: 7.21%,
CCSC1(SCC)N=C(N)C2(C#N)C(c3ccc(OC)c(OC)c3OC)C12C#N (configuration not stated),inconclusive: 15.3%,
Cc1ccccc1OCC(=O)Nc1ccc(N2CCN(C(=O)C(C)C)CC2)c(Cl)c1,,"inconclusive: 14.1 µM [falling, single point]"
CCOC(=O)C1CCN(c2ncnc3c2c(-c2ccccc2)cn3-c2ccccc2)CC1,inconclusive: -0.587%,
COC(=O)C(C)SC1=N/C(=C/c2ccc(-n3cncn3)cc2)C(=O)N1 (configuration not stated),inconclusive: 13.7%,
CN(C)C(=C(C#N)C#N)N1CCN(c2ccc(Cl)cc2)CC1,inconclusive: 2.67%,

# Sorted by molecular weight (descending): some entries from above.
SMILES,"activity change, negative = inhibition",Potency
CCOc1cc(/C=N/N=C(\N)c2nonc2N)cc(Br)c1OCc1cccc2ccccc12,,"inconclusive: 2.31 µM [rising, full curve]"
CCc1ccc(NC(=O)CSc2nc3n[nH]c(C)c3c(=N)n2-c2cccc(OC)c2)cc1,inconclusive: -2.16%,
O=[N+]([O-])c1ccc(Cl)c(S(=O)(=O)/N=C(/c2ccccc2)N2CCOCC2)c1,inactive,
